In publication PMC4858978:
Results are given in words; binding and its absence hold for the method and conditions named. In cells and extracts the contact can be indirect. These calls come from enrichment with a bait or labelling near it, and not all partners need be listed.

Amino acid sequences for entries named in this document (tags omitted).
UniProt O60260: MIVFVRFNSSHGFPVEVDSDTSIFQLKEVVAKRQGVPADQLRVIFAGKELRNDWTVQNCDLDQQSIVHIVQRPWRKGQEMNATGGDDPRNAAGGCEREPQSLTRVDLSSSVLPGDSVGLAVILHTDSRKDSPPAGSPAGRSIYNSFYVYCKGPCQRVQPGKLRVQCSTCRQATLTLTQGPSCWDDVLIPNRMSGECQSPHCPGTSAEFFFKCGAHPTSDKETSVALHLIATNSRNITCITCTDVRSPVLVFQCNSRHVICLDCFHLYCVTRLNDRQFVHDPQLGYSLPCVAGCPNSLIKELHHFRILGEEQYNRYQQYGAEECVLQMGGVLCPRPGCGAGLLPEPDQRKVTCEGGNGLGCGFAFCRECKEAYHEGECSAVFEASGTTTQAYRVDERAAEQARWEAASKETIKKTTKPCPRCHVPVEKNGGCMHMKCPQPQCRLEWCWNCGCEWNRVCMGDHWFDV
UniProt P14618: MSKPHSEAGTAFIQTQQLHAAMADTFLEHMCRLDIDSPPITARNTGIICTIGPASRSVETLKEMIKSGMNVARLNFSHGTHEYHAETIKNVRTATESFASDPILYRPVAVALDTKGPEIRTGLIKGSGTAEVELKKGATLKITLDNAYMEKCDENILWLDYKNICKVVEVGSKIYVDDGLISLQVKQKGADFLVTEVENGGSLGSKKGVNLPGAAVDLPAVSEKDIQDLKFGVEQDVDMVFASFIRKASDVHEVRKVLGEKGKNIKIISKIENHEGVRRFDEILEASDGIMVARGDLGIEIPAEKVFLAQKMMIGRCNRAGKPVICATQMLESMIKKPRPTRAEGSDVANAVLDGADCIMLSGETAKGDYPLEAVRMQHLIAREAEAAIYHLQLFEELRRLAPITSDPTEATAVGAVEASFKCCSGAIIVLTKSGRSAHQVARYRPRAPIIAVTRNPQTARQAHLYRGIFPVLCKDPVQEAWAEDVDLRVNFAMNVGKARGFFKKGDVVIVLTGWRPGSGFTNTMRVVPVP

Assays:
[1] = target: FLAG-HA-parkin (FLAG- and HA-double tagged human parkin) (human) (UniProt O60260); experiment: affinity purification with mass spectrometry; cytoplasmic extracts of FLAG-HA-PKM2/H1299 or FLAG-HA-parkin/H1299 stable lines; FLAG M2 and HA two-step immunoprecipitation; LC-MS/MS of gel bands and Western blot of the purified complex; parental H1299 as control
[2] = target: FLAG-HA-PKM2 (double-tagged human pyruvate kinase M2) (human) (UniProt P14618); experiment: as above

Substance | binding [1] | binding [2]
pyruvate kinase M2, endogenous (from UniProt P14618 1-531) (enzyme) | binds | –
parkin, endogenous (from UniProt O60260 1-465) (enzyme) | – | binds
